At least one compound was matched to its structure with a doubt left.
Test system: 2OHE1 antiserum
Test: Radioimmunoassay cross-reactivity of the anti-2OHE1 antiserum
Format: binding
Conditions: antiserum raised against bovine serum albumin linked to 2-hydroxyestrone 17-carboxymethyloxime
From the text: Antibodies to 16α-OHE1, E2 and E3 were raised as described previously (Fishman, J., et al., SCIENCE, 204:1089-1091 (1979); Ikegawa, S., et al., J. STEROID BIOCHEM., 18:329-332 (1983)), while the anti-2OHE1 antiserum was a gift of Dr. Kanbegawa (Teikyo University, Japan) and was raised against bovine serum albumin linked to 2-hydroxyestrone 17-carboxymethyloxime. Cross-reactivities of the 2OHE1 antiserum with E1, E2 and E3, 16αOHE1, 2MeOE1, and 2-hydroxyestradiol (2OHE2) were 1.3%, 0.6%, 0.01%, 0.03%, 0.11% and 1.7%, respectively.
Each urine sample (1 or 2 mL) contained approximately 3000 dpm of […] steroid used to determine recovery, and was applied to a C18 Sep-pak cartridge followed by elution with 5 mL of methanol. The eluate was dried in vacuo and hydrolyzed with Glusulase for 12 h at 37°C. The hydrolyzed steroids were again extracted on a C18 Sep-pak cartridge and eluted with 5 mL of methanol. Aliquots of this final eluate were taken for determination of recovery (averaging 90-95%) and duplicate radioimmunoassay (100 µL). In order to prevent auto-oxidation of catecholestrogens, ascorbic acid (1%) was used in all stages of the assay. Radiolabeled steroids and antisera were incubated with the specimens overnight at 4°C, and radioactivity was measured with a Packard model 3000 scintillation counter. […]

| Compound | Cross-reactivities of the 2OHE1 antiserum [%] |
| --- | --- |
| C[C@]12CC[C@@H]3c4ccc(O)cc4CC[C@H]3[C@@H]1CCC2=O [E1, estrone] | 1.3 |
| C[C@]12CC[C@@H]3c4ccc(O)cc4CC[C@H]3[C@@H]1CC[C@@H]2O [E2, estradiol] | 0.6 |
